Patent US9546157B2, “Asymmetric piperidinyl-substituted ureas as medicines” (Helsinn Healthcare SA, priority 2014, dated 2017)
The match of structure and compound is tentative.

The chains behind the UniProt entries cited, without tags or fusion partners.
UniProt Q92847, whole entry: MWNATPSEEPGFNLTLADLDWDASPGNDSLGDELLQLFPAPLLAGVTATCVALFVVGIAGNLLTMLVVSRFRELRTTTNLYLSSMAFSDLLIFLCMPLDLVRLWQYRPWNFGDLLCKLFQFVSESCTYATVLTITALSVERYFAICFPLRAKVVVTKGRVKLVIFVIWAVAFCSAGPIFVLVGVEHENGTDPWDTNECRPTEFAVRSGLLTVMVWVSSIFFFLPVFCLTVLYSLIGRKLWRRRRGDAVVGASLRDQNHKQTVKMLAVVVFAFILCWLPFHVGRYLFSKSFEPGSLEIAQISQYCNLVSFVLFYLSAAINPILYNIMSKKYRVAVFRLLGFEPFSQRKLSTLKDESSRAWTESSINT

Key:
[1] = target: T1, GHSR1a (Homo sapiens, UniProt Q92847); assay: Calcium FLIPR assay, GHSR-1a antagonism (reduction of ghrelin response); conditions: HEK293/GHSR1a cells, ghrelin 10 nM
Procedure: (§1) The intracellular calcium assay was carried out in a 384-well format FLIPR™ (Molecular Device) HEK293/GHSR1a cell line. Cells were seeded 24 hr prior to the experiments at an optimal density per well. Preincubation with selected calcium dye lasted for 30-60 min at room temperature or 37° C. Test compounds, dissolved in DMSO, were added at the appropriate time and incubated for 15 min followed by the addition of ghrelin with FlexStation or FLIPR. Relative fluorescence was monitored by the FLIPR™ Molecular Device. EC50 and IC50 values were estimated from dose-response data using GraphPad Prism software. To check for GHSR-1a agonism the compound was added at t=20 sec. and the calcium response was followed for 2 minutes. To check for GHSR-1a antagonism the compound and Ghrelin (10 nM) were added to the cells at t=20 sec. and the calcium response was measured for 2 minutes. The potency of the antagonist was calculated by its ability to reduce the ghrelin response. Dose-response curves were made for relevant antagonists.

[2] = target: T1, GHSR1a; assay: Calcium FLIPR assay, GHSR-1a agonism; parameters: Emax: unit not given here; conditions: HEK293/GHSR1a cells
Procedure: as §1

[3] = test system: C57BL/6J mice; assay: Food intake test in mouse (GHSR1a antagonists); conditions: i.p. 10 mg/kg
Procedure: Male C57BL/6J mice, 18-22 g body weight, were fasted overnight (16 h before compound administration) and placed in a regular light dark cycle (6:00-18:00 light/18:00-6:00 dark). After 1 wk acclimation, animals were sorted into two groups (n=6 each, 2 per cage) based on body weight. Animals in group one were be treated with vehicle and animals in group 2 were treated with the test agent (n=6 for each group). The cumulative food intake was evaluated at 1, 2, 4, 8 and 24 hrs after drug or vehicle treatment. Food intake was measured by subtracting uneaten food from the initial premeasured food.

| IC50 [1] [µM] | EC50 [2] [µM] | Emax [2] | SMILES | Mouse Food Intake inhibition, activity up to [3] [h] | Mouse Food Intake % Inhibition ([3]; at 1 h) [%] |
| --- | --- | --- | --- | --- | --- |
| 0.039 | > 30 |  | CN1CCC(N(C)C(=O)NC(C#N)c2ccc(-c3cncc(-c4ccc[nH]4)c3)c(Cl)c2Cl)CC1 (centres unmarked) |  |  |
| 0.048 | > 30 |  | CN1CCC(N(C)C(=O)NC(C#N)c2ccc(-c3cn[nH]c3)c(Cl)c2Cl)CC1 (centres unmarked) | ≤ 8 | 57 |
| 0.002 | 0.006 | 2280 | CN1CCC(N(C)C(=O)NC(CO)c2ccc(-c3cccs3)c(Cl)c2Cl)CC1 (centres unmarked) |  |  |
| 0.003 | 0.001 | 5075 | CN1CCC(N(C)C(=O)NC(C#N)c2ccc(I)c(Br)c2Cl)CC1 (centres unmarked) |  |  |
| 0.318 | > 30 |  | COC(=O)c1cnc(-c2ccc(C(C)NC(=O)N(C)C3CCN(C)CC3)c(Cl)c2Cl)cn1 (centres unmarked) |  |  |
